Assay results published in doi:10.1101/2022.09.13.507776.
These are yes or no findings as the source states them, for the method shown. Binding seen in cells or lysates may run through a third protein. Some binding calls cover weakened binding; strength is not graded here. Sequences can lack the tags named with a protein.

How the values were obtained:
[1] = target: hemagglutinin (HA)-tagged SRGAP2A (human) (UniProt O75044); test: co-IP
[2] = target: hemagglutinin (HA)-tagged SRGAP2C (human) (UniProt P0DJJ0); test: co-IP

B1: CTNND2-GFP (protein, UniProt Q9UQB3 1-1225)
chain: MFARKPPGAAPLGAMPVPDQPSSASEKTSSLSPGLNTSNGDGSETETTSAILASVKEQELQFERLTRELEAERQIVASQLERCKLGSETGSMSSMSSAEEQFQWQSQDGQKDIEDELTTGLELVDSCIRSLQESGILDPQDYSTGERPSLLSQSALQLNSKPEGSFQYPASYHSNQTLALGETTPSQLPARGTQARATGQSFSQGTTSRAGHLAGPEPAPPPPPPPREPFAPSLGSAFHLPDAPPAAAAAALYYSSSTLPAPPRGGSPLAAPQGGSPTKLQRGGSAPEGATYAAPRGSSPKQSPSRLAKSYSTSSPINIVVSSAGLSPIRVTSPPTVQSTISSSPIHQLSSTIGTYATLSPTKRLVHASEQYSKHSQELYATATLQRPGSLAAGSRASYSSQHGHLGPELRALQSPEHHIDPIYEDRVYQKPPMRSLSQSQGDPLPPAHTGTYRTSTAPSSPGVDSVPLQRTGSQHGPQNAAAATFQRASYAAGPASNYADPYRQLQYCPSVESPYSKSGPALPPEGTLARSPSIDSIQKDPREFGWRDPELPEVIQMLQHQFPSVQSNAAAYLQHLCFGDNKIKAEIRRQGGIQLLVDLLDHRMTEVHRSACGALRNLVYGKANDDNKIALKNCGGIPALVRLLRKTTDLEIRELVTGVLWNLSSCDALKMPIIQDALAVLTNAVIIPHSGWENSPLQDDRKIQLHSSQVLRNATGCLRNVSSAGEEARRRMRECDGLTDALLYVIQSALGSSEIDSKTVENCVCILRNLSYRLAAETSQGQHMGTDELDGLLCGEANGKDAESSGCWGKKKKKKKSQDQWDGVGPLPDCAEPPKGIQMLWHPSIVKPYLTLLSECSNPDTLEGAAGALQNLAAGSWKWSVYIRAAVRKEKGLPILVELLRIDNDRVVCAVATALRNMALDVRNKELIGKYAMRDLVHRLPGGNNSNNTASKAMSDDTVTAVCCTLHEVITKNMENAKALRDAGGIEKLVGISKSKGDKHSPKVVKAASQVLNSMWQYRDLRSLYKKDGWSQYHFVASSSTIERDRQRPYSSSRTPSISPVRVSPNNRSASAPASPREMISLKERKTDYECTGSNATYHGAKGEHTSRKDAMTAQNTGISTLYRNSYGAPAEDIKHNQVSAQPVPQEPSRKDYETYQPFQNSTRNYDESFFEDQVHHRPPASEYTMHLGLKSTGNYVDFYSAARPYSELNYETSHYPASPDSWV
binding [1]: binds
binding [2]: binds
